Source: the supplement of paper PMC10849652
The list shows a part of the results.

By UniProt entry, the sequences of proteins in these tests, tags left out. Where a name states a change or a piece, a line headed by the entry shows the natural chain unless it says otherwise.
UniProt Q8IUX4: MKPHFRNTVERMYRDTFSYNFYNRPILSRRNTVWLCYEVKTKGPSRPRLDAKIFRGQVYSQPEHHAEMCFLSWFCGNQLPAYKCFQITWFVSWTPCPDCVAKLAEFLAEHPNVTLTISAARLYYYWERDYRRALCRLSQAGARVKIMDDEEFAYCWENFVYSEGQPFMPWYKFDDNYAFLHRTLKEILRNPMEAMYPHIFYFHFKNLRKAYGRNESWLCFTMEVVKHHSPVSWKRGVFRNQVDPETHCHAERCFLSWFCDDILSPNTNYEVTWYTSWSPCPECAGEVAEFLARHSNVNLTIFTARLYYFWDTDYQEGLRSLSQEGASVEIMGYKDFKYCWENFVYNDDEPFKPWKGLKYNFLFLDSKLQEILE
UniProt Q9Y587: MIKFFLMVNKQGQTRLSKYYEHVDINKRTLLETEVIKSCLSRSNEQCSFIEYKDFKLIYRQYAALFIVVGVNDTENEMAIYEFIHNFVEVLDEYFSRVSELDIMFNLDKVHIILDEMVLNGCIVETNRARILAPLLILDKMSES
UniProt P05090: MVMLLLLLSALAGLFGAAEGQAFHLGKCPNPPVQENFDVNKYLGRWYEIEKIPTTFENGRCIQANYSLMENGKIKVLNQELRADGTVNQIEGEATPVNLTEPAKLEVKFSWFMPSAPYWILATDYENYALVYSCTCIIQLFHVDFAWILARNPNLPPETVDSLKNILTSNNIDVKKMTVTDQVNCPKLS
UniProt Q8NB46: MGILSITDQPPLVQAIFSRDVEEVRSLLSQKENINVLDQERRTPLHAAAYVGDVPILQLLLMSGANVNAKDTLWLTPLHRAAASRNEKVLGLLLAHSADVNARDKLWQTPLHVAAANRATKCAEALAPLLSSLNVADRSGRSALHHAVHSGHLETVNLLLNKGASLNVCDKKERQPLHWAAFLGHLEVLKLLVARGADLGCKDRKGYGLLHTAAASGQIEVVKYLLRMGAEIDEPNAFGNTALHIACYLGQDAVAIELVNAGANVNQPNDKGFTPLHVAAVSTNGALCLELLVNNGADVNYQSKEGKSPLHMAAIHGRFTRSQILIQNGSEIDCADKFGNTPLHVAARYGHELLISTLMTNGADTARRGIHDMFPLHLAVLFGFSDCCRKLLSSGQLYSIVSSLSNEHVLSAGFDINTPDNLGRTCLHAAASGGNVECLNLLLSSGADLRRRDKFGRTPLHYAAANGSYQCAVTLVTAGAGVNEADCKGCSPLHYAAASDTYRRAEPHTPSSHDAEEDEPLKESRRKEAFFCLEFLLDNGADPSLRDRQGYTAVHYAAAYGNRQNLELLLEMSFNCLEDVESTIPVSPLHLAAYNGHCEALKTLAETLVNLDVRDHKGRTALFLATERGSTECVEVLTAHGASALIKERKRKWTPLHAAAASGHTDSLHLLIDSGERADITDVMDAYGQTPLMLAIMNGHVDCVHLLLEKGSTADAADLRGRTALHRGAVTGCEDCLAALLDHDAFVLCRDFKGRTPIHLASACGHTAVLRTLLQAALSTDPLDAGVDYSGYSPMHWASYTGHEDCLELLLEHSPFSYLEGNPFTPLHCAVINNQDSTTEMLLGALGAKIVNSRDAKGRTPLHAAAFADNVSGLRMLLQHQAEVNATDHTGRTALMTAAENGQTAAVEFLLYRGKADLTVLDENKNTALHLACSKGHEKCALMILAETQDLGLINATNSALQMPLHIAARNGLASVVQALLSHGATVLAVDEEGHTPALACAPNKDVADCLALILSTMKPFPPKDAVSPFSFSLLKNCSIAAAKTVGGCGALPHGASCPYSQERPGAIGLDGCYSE
UniProt Q8N6S4: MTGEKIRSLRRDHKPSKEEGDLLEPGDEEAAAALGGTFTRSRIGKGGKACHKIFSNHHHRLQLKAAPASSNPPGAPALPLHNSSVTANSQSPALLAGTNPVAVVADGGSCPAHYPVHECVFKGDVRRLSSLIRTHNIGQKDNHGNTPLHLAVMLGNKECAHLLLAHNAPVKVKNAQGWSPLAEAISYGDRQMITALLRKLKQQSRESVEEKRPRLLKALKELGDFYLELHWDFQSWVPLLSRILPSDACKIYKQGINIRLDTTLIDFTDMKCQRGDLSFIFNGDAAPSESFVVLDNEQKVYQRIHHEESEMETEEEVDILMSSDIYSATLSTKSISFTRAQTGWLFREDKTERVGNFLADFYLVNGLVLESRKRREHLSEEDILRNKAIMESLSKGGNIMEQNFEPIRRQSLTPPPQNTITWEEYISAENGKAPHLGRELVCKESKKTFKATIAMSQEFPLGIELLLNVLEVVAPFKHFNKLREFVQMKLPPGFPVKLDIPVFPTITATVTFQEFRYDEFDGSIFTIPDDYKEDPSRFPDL
UniProt Q9HCJ1: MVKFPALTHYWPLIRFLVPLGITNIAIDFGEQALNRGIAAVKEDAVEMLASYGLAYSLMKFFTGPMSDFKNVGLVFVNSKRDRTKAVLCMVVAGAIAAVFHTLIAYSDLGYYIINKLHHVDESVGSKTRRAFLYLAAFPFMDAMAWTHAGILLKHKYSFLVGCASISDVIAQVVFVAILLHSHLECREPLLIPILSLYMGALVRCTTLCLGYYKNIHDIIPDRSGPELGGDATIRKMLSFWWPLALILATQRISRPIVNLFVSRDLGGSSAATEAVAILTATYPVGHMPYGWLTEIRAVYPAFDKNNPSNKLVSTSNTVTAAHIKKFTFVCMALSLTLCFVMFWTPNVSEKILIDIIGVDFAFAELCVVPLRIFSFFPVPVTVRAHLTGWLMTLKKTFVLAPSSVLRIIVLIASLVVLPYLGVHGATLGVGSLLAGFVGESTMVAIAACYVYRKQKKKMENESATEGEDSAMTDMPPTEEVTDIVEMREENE
UniProt O14791: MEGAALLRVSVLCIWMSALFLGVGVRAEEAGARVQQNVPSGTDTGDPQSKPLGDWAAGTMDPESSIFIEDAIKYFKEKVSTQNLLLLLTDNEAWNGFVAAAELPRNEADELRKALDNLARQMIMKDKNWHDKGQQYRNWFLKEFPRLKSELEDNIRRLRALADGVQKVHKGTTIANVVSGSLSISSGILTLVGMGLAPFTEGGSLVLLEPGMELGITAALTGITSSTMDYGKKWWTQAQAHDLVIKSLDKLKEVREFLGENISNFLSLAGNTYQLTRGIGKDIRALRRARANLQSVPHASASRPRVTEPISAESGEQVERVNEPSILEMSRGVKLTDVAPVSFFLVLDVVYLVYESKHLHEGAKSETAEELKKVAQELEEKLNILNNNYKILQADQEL
UniProt Q7Z5H3: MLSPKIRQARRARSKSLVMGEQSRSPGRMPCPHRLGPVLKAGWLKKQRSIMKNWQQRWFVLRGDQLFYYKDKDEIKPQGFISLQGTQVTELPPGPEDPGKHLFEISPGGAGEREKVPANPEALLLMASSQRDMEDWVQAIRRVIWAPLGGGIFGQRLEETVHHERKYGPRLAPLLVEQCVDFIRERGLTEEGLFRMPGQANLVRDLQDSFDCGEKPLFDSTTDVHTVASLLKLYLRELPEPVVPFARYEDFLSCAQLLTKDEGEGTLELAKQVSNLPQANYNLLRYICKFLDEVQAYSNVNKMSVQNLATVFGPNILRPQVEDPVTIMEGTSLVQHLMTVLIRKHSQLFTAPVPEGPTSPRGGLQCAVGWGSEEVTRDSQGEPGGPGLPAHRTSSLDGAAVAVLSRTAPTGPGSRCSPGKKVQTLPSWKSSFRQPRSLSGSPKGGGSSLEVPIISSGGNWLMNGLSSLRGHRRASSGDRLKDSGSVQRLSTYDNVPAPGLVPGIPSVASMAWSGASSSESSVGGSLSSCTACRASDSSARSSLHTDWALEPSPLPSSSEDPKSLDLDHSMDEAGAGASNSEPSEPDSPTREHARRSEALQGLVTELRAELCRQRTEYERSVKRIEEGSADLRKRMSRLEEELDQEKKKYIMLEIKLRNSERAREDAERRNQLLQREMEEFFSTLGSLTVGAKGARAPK
UniProt O14727: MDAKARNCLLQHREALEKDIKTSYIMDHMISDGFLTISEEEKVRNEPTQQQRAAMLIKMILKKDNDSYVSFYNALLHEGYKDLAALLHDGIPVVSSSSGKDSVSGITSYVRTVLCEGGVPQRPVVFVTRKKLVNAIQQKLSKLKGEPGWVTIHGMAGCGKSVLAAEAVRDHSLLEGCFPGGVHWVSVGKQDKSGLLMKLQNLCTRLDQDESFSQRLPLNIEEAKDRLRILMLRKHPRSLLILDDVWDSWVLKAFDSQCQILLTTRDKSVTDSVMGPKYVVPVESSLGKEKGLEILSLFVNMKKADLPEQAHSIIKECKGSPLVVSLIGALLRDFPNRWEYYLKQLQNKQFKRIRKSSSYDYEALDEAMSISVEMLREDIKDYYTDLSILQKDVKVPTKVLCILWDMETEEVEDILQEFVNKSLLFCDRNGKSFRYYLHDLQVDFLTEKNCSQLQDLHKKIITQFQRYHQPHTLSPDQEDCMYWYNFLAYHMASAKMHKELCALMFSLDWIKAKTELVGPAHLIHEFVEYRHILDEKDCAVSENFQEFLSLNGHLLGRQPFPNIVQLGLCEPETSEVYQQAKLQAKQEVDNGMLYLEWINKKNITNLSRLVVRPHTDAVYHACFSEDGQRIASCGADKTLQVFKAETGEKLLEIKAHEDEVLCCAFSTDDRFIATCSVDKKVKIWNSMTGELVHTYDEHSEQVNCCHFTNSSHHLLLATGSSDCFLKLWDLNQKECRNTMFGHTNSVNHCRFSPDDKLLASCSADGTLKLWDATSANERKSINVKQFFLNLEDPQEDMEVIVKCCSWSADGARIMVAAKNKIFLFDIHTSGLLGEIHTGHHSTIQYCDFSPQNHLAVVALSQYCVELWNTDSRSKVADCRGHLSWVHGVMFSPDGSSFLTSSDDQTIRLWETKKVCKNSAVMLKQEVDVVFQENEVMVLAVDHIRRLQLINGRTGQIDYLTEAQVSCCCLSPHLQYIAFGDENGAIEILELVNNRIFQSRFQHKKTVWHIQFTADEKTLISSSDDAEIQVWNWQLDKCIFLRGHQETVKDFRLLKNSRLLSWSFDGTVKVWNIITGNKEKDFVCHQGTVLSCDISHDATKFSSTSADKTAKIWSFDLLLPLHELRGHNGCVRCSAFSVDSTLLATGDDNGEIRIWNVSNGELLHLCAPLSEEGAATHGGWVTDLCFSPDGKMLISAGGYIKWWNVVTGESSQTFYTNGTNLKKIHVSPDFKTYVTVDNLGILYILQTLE
UniProt Q6P6B7: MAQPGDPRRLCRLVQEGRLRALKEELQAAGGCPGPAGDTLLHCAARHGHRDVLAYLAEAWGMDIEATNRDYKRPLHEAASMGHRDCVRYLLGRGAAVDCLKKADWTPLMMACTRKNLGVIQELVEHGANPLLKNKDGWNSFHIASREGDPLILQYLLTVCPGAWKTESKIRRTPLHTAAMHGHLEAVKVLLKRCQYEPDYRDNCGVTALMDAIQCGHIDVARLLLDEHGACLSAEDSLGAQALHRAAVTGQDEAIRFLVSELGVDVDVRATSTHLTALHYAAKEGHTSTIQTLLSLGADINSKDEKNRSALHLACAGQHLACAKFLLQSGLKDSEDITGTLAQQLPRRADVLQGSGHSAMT
UniProt Q86XL3: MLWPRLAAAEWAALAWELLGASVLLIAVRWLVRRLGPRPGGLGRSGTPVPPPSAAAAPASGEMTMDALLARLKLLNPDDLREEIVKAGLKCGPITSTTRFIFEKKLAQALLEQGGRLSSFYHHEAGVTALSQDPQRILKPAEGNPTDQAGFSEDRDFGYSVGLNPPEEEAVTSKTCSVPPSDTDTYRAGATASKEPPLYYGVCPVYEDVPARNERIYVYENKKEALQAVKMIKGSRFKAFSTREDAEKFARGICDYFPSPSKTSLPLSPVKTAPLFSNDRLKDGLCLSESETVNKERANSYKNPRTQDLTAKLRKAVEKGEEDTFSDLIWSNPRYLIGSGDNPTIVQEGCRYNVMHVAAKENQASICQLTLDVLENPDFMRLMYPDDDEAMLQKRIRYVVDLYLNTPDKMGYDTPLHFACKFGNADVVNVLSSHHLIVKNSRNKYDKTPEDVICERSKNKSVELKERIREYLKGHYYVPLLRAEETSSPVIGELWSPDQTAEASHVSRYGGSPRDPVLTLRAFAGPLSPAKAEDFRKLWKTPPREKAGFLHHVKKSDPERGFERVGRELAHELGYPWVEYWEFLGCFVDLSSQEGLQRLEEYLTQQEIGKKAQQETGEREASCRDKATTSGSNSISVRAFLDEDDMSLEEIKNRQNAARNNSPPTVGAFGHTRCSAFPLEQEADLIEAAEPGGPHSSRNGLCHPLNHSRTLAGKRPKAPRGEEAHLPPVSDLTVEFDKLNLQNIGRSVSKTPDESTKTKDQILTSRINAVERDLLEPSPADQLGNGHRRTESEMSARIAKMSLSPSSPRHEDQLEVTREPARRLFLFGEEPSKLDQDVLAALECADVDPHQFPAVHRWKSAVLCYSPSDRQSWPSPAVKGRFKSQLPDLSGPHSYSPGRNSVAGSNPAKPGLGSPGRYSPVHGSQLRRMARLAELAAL
UniProt P02655: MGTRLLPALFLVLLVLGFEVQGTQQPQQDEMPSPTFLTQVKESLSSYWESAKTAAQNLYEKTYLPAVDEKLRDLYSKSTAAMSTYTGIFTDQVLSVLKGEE

compound: COC(=O)N[C@@H](C)CNc1nccc(-c2cn(C(C)C)nc2-c2cc(Cl)cc(NS(C)(=O)=O)c2F)n1 [encorafenib]; test: log2 fold change, soluble protein after heating vs DMSO (PISA); higher = thermal stabilisation; K562 cells, 10 uM, 30 min; active = over 0.2 and 3.5 SD of the protein, either way, in both replicates (recomputed)
How it was run: (§1)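 Soluble protein was quantified by TMTpro 16plex LC-MS/MS after channel sums were equalised. It was obtained as the supernatant after 21,000xg for 90 min from pooled aliquots of K562 cells (2×10^6 cells/mL, 10 μM compound, 30 min) heated for 3 min across 48°C-58°C and extracted in PBS with 0.5% NP-40 at 4°C. Thermal stability values are relative to control samples and come from duplicates. They are given as log2 fold changes.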

log2 fold change, inactive:
APOBEC3F (UniProt Q8IUX4) -0.069
AP4S1 (UniProt Q9Y587) 0.073
ANKS1A (UniProt Q92625) 0.103
ARHGAP5 (UniProt Q13017) 0.013
ANLN (UniProt Q9NQW6) -0.006
ARHGAP25 isoform 4 (UniProt P42331) 0.212
APOD (UniProt P05090) -0.008
ANKFY1 isoform 4 (UniProt Q9P2R3) 0.322
APC (UniProt P25054) -0.002
ANKRD52 (UniProt Q8NB46) -0.082
ARHGAP35 (UniProt Q9NRY4) 0.212
ANKRD13C (UniProt Q8N6S4) -0.081
AP1B1 isoform 3 (UniProt Q10567) 0.058
APP (UniProt P05067) 0.64
ANKH (UniProt Q9HCJ1) -0.05
APOL1 isoform 2 (UniProt O14791) -0.33
ARHGAP22 isoform 2 (UniProt Q7Z5H3) -0.036
APAF1 (UniProt O14727) 0.158

compound: COC(=O)[C@H](CCSC)NC(=O)C1=C(C=C(C=C1)NC[C@H](CS)N)C2=CC=CC=C2; test: as above
How it was run: as §1

log2 fold change, inactive:
ARHGEF10 (UniProt O15013) 0.16
AP4S1 (UniProt Q9Y587) 0.008
APOA4 (UniProt P06727) -0.033
ANLN (UniProt Q9NQW6) 0.063
ANKRD16 (UniProt Q6P6B7) 0.016
ARHGAP25 isoform 4 (UniProt P42331) -0.212
APOD (UniProt P05090) 0.25
ANKFY1 isoform 4 (UniProt Q9P2R3) 0.014
APC (UniProt P25054) -0.029
ANKRD52 (UniProt Q8NB46) -0.413
ARHGAP35 (UniProt Q9NRY4) 0.047
ANKRD13C (UniProt Q8N6S4) -0.042
ANKRD11 (UniProt Q6UB99) 0.052
AP1B1 isoform 3 (UniProt Q10567) 0.058
ANKRD26 (UniProt Q9UPS8) -0.035
ANKLE2 (UniProt Q86XL3) -0.075
API5 isoform 1 (UniProt Q9BZZ5) -0.262
ARHGAP22 isoform 2 (UniProt Q7Z5H3) 0.045
ANGEL1 (UniProt Q9UNK9) 0.095
APAF1 (UniProt O14727) 0.05
APOC2 (UniProt P02655) -0.013
